Article PMC8505418
These are yes or no findings as the source states them, for the method shown. In cells and extracts the contact can be indirect.

Amino acid sequences for entries named in this document (tags omitted).
UniProt Q13148: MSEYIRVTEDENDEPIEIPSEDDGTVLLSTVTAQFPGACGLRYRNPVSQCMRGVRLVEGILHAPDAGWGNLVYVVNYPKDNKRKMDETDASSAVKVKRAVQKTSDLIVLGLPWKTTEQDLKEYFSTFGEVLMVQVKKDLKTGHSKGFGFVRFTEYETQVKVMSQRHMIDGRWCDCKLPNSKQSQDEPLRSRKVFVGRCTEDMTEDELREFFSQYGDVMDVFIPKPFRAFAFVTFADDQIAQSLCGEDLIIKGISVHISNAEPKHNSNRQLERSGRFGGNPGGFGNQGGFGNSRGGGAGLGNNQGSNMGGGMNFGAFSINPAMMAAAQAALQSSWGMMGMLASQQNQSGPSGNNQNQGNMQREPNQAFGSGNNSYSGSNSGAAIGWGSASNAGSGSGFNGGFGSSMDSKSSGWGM

Columns and labels:
Assay in all cases: co-IP; GFP-Trap beads on lysates of U2OS cells transfected with EGFP-FLAG-Ku70 wild type or Ser77/78 mutants, UV-irradiated (200 J/m^2) 48 h after transfection; lysis buffer 10 mM Tris-HCl pH 7.5, 100 mM NaCl, 0.5 mM EDTA, 0.5% NP-40; 60 min at 4 °C; western blots for endogenous partners
[1] = biological target: EGFP-Ku70-WT (pEGFP-C1-FLAG-Ku70, 70 kDa subunit of Ku antigen, wild type) (human) (UniProt P12956)
[2] = biological target: EGFP-Ku70-SS77/78DD (human) (UniProt P12956)
[3] = biological target: EGFP-Ku70-SS77/78AA (human) (UniProt P12956)
[4] = biological target: EGFP-Ku70-SS77/78EE (human) (UniProt P12956)

Measured: binding

VCP (from UniProt P55072 1-806)
no binding: [1] | [2] | [3] | [4]

TDP43 (from UniProt Q13148 1-414)
no binding: [2] | [3] | [4]
